Experimental data taken from patent publication US20260325541A1, “BENZGALANTAMINE FOR TREATING PERSISTENT POST-CONCUSSION SYMPTOMS” (Alpha Cognition Inc., priority 2023, published 2026).
For at least one compound, name, drawing or mass did not settle the structure.

Columns and labels:
p-Tau = p-Tau (AT8) immunostaining at 35 days post-TBI; assay type: in vivo, male Wistar rats; conditions: cortex, DG, CA3, CA1 ipsilateral, FIG. 17
[1] = test system: young adult male rats after moderate TBI induced by controlled cortical impact (CCI); test: Novel object recognition (NOR) test; assay type: in vivo, male Wistar rats; conditions: 5 weeks after TBI; 4.5 mg/kg IN twice daily; FIG. 9
[2] = test system: DCX+ neuroblasts in the dentate gyrus; test: Doublecortin (DCX) immunohistochemistry at 35 days post-TBI; assay type: in vivo, male Wistar rats; conditions: 35 days following TBI, FIG. 14
[3] = test system: young adult male rats after moderate TBI induced by controlled cortical impact (CCI); test: Right forelimb adhesive removal test; assay type: in vivo, male Wistar rats; conditions: from day 7 on, 4.5 mg/kg IN twice daily, FIG. 6
total Tau protein = test: Total Tau immunostaining at 35 days post-TBI; assay type: in vivo, male Wistar rats; conditions: cortex, DG, CA3, CA1 ipsilateral, FIG. 18
[4] = test system: NeuN and BrdU double positive granule neurons in the dentate gyrus; test: NeuN/BrdU double label staining (neurogenesis) at 35 days post-TBI; assay type: in vivo, male Wistar rats; conditions: 35 days following TBI, FIG. 15, 16
[5] = test system: young adult male rats after moderate TBI induced by controlled cortical impact (CCI); test: Lesion volume at 35 days post-TBI (H&E); assay type: in vivo, male Wistar rats; conditions: 35 days after TBI; 4.5 mg/kg IN twice daily; FIG. 11
[6] = test system: young adult male rats after moderate TBI induced by controlled cortical impact (CCI); test: Modified neurological severity score (mNSS); assay type: in vivo, male Wistar rats; conditions: from day 14 onwards; 4.5 mg/kg IN twice daily; FIG. 5
[7] = test system: cholinesterase; nicotinic receptor; conditions: uncleaved pro-drug; cited from earlier work
[8] = test system: young adult male rats after moderate TBI induced by controlled cortical impact (CCI); test: Fore- and hindlimb foot-fault test after TBI; assay type: in vivo, male Wistar rats
NeuN positive cells = test: NeuN immunohistochemistry (neuronal cell loss) at 35 days post-TBI; assay type: in vivo, male Wistar rats; conditions: DG, CA1, CA3 and cortex; 35 days following TBI; FIG. 13
hippocampus and thalamus = test: Histology: hippocampal structure and gliosis in thalamus at 35 days post-TBI; assay type: in vivo, male Wistar rats; conditions: FIG. 12
[9] = test system: young adult male rats after moderate TBI induced by controlled cortical impact (CCI); test: Morris water maze (MWM) test; assay type: in vivo, male Wistar rats
Beta Amyloid = conditions: Alzheimer transgenic mouse model, previous reports; cited from earlier work
[10] = test system: patients with persistent post-concussion symptoms after mTBI; test: Phase 2 trial, persistent post-concussion symptoms after mTBI; assay type: in vivo, human; conditions: intranasal, 5-15 mg twice daily, 12 weeks; trial ongoing, predicted results
[11] = days 33 to 35, 4.5 mg/kg IN twice daily, FIG. 8

For `COc1ccc2c3c1O[C@H]1C[C@@H](OC(=O)c4ccccc4)C=C[C@@]31CCN(C)C2` [ALPHA-1062, (4aS,6R,8aS)-5,6,9,10,11,12-hexahydro-3-methoxy-11-methyl-4aH-[1]benzofuro[3a,3,2-ef][2]benzazepin-6-ol benzoate], the “p-Tau level vs vehicle” value (p-Tau) was “significantly reduced levels of p-Tau compared to vehicle controls”, the “preference for the novel object” value [1] was “statistically significant preference for the novel object” and the “DCX positive cells vs sham” value [2] was “comparable numbers to the sham surgery cohort of animals”. For the same molecule, the “DCX positive cells vs vehicle” value [2] was “significantly higher number of DCX positive cells”, the “adhesive removal performance vs sham” value [3] was “as well as the uninjured (sham) animals” and the “adhesive removal performance vs vehicle” value [3] was “significantly better than the vehicle treated animals”. The “total Tau protein” value (total Tau protein) was “does not alter total Tau protein”, the “NeuN and BrdU double positive granule neurons vs vehicle and sham” value [4] was “significantly higher (p<0.05) numbers of NeuN and BrdU double positive granule neurons” and the “lesion volume vs vehicle” value [5] was “significant (p<0.05) reduction of lesion volume”. The “mNSS performance vs vehicle” value [6] was “performed statistically significantly better”, the “activity as a cholinesterase inhibitor or nicotinic modulator prior to cleavage” value [7] was “no or negligible activity” and the “pharmacological activity before cleavage by esterases” value [7] was “essentially no pharmacological activity”. The “right forelimb foot faults vs vehicle” value ([8]; 4.5 mg/kg IN twice daily from 2 h post injury, 35 days, FIG. 3) was “significantly fewer foot faults than animals that received vehicle treatment after TBI”, the “right hindlimb foot faults vs vehicle” value ([8]; 4.5 mg/kg IN twice daily from 2 h post injury, 35 days, FIG. 4) was “significantly fewer foot faults than animals that received vehicle treatment after TBI” and the “foot-fault performance vs sham” value ([8]; by day 28, 4.5 mg/kg IN twice daily) was “statistically indistinguishable from that of the uninjured (sham) animals”. For the same molecule, the “neuronal cell loss (NeuN) vs vehicle” value (NeuN positive cells) was “reduced loss of neurons”, the “neuronal cell numbers (NeuN) vs sham” value (NeuN positive cells) was “did not differ significantly from sham surgery animals” and the “gliotic scarring in thalamus” value (hippocampus and thalamus) was “reduced gliotic scaring in thalamus”. The “hippocampal structure on the injured side of the brain” value (hippocampus and thalamus) was “preservation of hippocampal structure on the injured side of the brain”, the “latency to find the hidden platform vs vehicle” value ([9]; D33-D35, 4.5 mg/kg IN twice daily, FIG. 7) was “statistically significantly better than the vehicle treated animals” and the “ability to find the hidden escape platform vs sham” value ([9]; D33-D35 as stated in results text, FIG. 7) was “as well as the uninjured (sham) animals”. For the same molecule, the “% time in correct quadrant vs sham” value [9, 11] was “an equivalent amount of time in the correct quadrant”, the “% time in correct quadrant vs vehicle” value [9, 11] was “statistically significantly better than the vehicle treated animals” and the “finding of the submerged platform vs sham” value ([9]; from day 34 on as stated in figure legend, FIG. 7) was “as well as the healthy (sham surgery) animals”. The “Beta Amyloid proteopathy/toxicity” value (Beta Amyloid) was “reduced Beta Amyloid proteopathy/toxicity” and the “therapeutic efficacy in primary and secondary efficacy outcome assessments” value [10] was “therapeutic efficacy”.
